Test results as given in the supplement of paper PMC10849652.
Some of the results follow.

Protein sequences, listed by entry. Tags and fused reporters are not part of them. Lines headed by an entry give the natural chain unless they say otherwise; changes in a name come on top.
UniProt O00217, whole entry, looked up: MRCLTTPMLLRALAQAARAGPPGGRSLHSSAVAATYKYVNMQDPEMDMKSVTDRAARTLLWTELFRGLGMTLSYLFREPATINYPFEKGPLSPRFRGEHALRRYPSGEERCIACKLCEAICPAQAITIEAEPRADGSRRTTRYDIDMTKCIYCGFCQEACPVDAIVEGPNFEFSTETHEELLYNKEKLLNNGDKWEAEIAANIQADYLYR
UniProt Q14934: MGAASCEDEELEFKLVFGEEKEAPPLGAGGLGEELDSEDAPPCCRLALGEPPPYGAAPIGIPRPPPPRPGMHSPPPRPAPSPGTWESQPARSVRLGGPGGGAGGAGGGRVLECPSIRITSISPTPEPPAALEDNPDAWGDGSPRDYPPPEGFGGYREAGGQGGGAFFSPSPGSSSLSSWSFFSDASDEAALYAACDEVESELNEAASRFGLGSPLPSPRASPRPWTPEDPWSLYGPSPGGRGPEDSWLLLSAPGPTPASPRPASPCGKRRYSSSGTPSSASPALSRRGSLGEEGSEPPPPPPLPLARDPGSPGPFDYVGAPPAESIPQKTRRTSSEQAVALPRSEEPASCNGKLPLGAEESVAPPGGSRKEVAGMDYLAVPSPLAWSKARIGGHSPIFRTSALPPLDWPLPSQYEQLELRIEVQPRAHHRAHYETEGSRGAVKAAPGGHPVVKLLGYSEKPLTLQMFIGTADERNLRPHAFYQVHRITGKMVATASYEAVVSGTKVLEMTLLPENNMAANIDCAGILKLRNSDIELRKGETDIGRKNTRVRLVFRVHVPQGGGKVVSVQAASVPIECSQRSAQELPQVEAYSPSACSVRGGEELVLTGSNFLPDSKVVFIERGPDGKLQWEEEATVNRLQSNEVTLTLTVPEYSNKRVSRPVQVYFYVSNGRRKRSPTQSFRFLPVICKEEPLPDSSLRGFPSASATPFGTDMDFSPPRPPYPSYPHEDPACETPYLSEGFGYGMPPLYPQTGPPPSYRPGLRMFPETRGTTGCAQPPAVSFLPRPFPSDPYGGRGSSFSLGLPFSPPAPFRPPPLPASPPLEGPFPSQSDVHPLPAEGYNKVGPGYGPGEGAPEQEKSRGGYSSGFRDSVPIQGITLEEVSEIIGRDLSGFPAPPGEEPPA
UniProt P12036: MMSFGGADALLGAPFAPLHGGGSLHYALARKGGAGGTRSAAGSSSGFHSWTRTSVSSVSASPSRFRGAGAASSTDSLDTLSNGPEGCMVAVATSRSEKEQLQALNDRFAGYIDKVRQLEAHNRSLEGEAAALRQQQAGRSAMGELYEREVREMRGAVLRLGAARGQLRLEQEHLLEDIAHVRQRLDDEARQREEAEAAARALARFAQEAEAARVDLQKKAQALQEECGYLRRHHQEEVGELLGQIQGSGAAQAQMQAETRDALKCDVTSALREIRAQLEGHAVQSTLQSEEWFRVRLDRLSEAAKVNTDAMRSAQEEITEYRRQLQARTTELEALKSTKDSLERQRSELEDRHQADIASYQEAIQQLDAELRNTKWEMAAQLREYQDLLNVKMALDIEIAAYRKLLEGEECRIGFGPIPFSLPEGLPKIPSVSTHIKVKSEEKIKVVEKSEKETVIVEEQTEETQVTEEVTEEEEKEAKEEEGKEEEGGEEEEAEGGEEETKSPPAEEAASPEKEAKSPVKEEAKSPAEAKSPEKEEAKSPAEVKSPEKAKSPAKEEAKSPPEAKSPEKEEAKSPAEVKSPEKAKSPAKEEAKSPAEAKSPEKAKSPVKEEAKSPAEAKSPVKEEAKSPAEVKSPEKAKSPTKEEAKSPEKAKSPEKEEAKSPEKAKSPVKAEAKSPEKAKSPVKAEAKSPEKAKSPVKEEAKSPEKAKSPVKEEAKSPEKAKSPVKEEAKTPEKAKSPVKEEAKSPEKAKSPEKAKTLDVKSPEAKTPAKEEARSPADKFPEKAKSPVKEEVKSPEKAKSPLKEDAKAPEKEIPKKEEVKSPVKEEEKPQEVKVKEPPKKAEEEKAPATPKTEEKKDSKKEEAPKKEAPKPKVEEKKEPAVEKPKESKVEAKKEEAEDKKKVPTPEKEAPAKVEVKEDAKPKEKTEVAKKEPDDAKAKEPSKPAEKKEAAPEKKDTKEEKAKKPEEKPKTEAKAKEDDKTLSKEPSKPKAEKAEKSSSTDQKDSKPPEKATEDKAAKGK
UniProt P28331, whole entry, looked up: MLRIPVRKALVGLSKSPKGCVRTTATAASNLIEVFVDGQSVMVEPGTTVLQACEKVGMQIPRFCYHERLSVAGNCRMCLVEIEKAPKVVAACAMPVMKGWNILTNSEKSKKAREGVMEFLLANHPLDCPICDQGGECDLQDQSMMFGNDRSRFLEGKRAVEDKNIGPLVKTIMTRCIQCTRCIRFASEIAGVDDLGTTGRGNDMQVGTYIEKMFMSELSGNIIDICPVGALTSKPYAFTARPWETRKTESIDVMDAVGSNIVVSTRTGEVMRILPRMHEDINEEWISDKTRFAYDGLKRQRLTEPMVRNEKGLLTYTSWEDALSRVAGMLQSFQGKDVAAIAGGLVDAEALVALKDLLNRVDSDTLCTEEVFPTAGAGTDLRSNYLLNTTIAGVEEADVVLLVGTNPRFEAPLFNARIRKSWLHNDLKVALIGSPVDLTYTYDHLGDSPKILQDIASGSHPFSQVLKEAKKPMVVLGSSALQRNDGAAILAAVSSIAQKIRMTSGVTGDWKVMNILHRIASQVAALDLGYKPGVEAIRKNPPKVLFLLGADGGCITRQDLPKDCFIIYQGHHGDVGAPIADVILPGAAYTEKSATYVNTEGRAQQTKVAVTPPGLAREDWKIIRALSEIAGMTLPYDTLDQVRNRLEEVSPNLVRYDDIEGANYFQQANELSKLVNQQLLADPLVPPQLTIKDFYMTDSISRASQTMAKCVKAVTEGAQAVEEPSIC
UniProt P35240: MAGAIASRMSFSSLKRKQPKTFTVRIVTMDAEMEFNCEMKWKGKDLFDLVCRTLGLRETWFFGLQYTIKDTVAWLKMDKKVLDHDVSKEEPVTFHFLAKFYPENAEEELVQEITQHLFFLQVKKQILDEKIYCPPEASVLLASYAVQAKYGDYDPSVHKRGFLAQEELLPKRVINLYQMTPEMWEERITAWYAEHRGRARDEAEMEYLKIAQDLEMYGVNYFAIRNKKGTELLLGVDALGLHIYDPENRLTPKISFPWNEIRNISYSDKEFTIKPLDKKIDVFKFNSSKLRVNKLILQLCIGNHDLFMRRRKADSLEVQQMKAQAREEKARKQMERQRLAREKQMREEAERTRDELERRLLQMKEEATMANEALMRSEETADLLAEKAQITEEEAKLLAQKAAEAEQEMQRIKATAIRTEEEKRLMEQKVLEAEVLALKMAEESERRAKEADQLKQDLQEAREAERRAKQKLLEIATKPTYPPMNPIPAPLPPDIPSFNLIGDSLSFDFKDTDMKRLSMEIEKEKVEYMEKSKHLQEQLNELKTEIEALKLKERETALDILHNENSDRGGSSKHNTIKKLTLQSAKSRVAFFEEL
UniProt Q8NBF2: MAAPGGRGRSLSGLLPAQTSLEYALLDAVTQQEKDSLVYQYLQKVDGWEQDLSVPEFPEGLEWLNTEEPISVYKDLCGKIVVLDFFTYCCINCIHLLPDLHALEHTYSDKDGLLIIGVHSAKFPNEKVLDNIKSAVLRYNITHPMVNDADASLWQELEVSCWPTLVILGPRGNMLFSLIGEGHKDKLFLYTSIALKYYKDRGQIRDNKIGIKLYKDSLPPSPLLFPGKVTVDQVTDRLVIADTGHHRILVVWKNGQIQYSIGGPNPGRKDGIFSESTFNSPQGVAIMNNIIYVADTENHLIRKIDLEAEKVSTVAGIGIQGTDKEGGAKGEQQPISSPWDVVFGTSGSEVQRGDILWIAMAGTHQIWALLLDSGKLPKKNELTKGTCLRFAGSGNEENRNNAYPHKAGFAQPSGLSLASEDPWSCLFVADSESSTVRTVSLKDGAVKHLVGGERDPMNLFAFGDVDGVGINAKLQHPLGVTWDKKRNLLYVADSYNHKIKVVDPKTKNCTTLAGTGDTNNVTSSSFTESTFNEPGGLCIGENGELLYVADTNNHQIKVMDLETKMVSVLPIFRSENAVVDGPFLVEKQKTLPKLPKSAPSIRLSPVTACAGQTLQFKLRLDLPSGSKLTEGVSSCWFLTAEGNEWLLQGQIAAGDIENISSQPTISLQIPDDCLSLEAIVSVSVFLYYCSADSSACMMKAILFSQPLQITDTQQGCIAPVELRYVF
UniProt P46934: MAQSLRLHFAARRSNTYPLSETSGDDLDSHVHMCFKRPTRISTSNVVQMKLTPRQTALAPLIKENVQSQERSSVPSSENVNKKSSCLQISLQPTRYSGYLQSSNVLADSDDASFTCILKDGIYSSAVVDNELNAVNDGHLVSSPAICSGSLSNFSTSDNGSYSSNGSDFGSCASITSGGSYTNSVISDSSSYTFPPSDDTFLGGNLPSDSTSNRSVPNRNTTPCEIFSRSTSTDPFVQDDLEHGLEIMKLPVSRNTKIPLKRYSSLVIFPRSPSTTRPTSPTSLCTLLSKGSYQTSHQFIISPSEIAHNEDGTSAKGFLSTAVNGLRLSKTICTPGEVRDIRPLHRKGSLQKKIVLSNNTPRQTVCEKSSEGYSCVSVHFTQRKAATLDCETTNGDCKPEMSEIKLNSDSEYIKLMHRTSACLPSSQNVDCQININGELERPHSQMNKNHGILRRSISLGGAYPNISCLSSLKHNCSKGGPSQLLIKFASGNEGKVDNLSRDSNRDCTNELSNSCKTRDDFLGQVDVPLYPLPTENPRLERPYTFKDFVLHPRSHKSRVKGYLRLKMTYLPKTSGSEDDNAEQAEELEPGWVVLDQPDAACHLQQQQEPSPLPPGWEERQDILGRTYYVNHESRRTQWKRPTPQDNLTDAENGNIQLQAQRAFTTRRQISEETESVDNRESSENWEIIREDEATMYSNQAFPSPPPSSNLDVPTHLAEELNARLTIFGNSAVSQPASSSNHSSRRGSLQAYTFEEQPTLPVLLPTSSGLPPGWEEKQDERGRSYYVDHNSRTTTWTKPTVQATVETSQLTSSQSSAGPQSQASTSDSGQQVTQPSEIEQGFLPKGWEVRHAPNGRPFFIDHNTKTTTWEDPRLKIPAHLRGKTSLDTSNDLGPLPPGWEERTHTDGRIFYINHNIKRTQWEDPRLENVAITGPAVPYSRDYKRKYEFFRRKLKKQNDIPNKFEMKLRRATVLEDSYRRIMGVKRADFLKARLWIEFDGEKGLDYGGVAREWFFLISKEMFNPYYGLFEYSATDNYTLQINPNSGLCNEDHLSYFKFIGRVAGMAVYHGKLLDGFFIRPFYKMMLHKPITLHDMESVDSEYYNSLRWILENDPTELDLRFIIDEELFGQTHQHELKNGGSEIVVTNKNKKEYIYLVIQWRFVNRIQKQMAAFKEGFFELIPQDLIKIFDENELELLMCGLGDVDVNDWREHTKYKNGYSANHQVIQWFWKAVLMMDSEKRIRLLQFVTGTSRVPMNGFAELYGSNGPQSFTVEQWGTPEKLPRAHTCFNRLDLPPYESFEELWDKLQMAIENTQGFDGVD
UniProt O00221: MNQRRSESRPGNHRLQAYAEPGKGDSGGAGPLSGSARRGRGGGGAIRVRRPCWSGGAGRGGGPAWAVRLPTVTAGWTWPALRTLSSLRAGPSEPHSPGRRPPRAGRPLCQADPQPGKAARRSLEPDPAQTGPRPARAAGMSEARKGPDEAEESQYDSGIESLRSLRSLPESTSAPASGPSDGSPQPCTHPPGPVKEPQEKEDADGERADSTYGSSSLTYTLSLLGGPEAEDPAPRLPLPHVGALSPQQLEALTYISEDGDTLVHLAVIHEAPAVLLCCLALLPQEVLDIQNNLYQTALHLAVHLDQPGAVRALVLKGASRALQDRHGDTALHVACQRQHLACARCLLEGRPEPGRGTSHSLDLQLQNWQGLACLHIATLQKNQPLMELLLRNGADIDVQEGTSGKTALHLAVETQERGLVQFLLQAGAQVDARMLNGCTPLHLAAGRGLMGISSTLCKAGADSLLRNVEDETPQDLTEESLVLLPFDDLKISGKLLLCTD

Key:
Assay in all cases: log2 fold change, soluble protein after heating vs DMSO (PISA); higher = thermal stabilisation; K562 lysate, 10 uM; active = over 0.2 and 3.5 SD of the protein, either way, in both replicates (recomputed)
[1] = compound: CS(=O)(=O)CCNCc1ccc(-c2ccc3ncnc(Nc4ccc(OCc5cccc(F)c5)c(Cl)c4)c3c2)o1 [lapatinib]
Outline: (§1)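 The values are log-two fold changes in thermal stability compared with solvent controls and come from duplicates. They were obtained by TMTpro 16plex LC-MS/MS, with channel sums equalised, on the supernatant after 21,000xg for 90 min. That supernatant came from crude K562 extract at 1 mg/mL protein treated with 10 μM compound for 30 min, heated for 3 min across 48°C-58°C, pooled and brought to 0.5% NP-40 at 4°C.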

[2] = compound: CS(=O)(=O)N1CCN(Cc2cc3nc(-c4cccc5[nH]ncc45)nc(N4CCOCC4)c3s2)CC1 [pictilisib]
Outline: as §1

[3] = compound: C[C@@H](Oc1cc(-c2cnn(C3CCNCC3)c2)cnc1N)c1c(Cl)ccc(F)c1Cl [crizotinib]
Outline: as §1

[4] = compound: C[C@H](C1=CC=C(C=C1)C(=O)NC2=C3C=CNC3=NC=C2)N
Outline: as §1

[5] = compound: C[C@H](Nc1ncnc2nc[nH]c12)c1cc2cccc(Cl)c2c(=O)n1-c1ccccc1 [duvelisib]
Outline: as §1

[6] = compound: Cc1cc(Nc2cc(CN3CCOCC3)c3nc(C)c(Cc4ccc(Cl)cc4F)n3n2)n[nH]1 [gandotinib]
Outline: as §1

[7] = compound: Cc1cc(Nc2cc(N3CCN(C)CC3)nc(Sc3ccc(NC(=O)C4CC4)cc3)n2)n[nH]1 [tozasertib]
Outline: as §1

[8] = compound: Cc1ccc(-n2nc(C(C)(C)C)cc2NC(=O)Nc2ccc(OCCN3CCOCC3)c3ccccc23)cc1 [doramapimod]
Outline: as §1

[9] = compound: Cc1ccc(NC(=O)c2ccc(CN3CC[C@H](N(C)C)C3)c(C(F)(F)F)c2)cc1Nc1nccc(-c2cncnc2)n1 [bafetinib]
Outline: as §1

[10] = compound: Cc1cccc(CC(=O)N2CCc3c2ccc(-c2cn(C)c4ncnc(N)c24)c3F)n1
Outline: as §1

[11] = compound: Cc1cn(-c2cc(NC(=O)c3ccc(C)c(Nc4nccc(-c5cccnc5)n4)c3)cc(C(F)(F)F)c2)cn1 [nilotinib]
Outline: as §1

[12] = compound: Cc1nc(Nc2n[nH]c3c2CN(C(=O)N[C@H](CN(C)C)c2ccccc2)C3(C)C)c2sccc2n1
Outline: as §1

[13] = compound: Cc1nc(Nc2ncc(C(=O)Nc3c(C)cccc3Cl)s2)cc(N2CCN(CCO)CC2)n1 [dasatinib]
Outline: as §1

[14] = compound: Cc1ncc(-c2ccnc(Nc3ccc(S(C)(=O)=O)cc3)n2)n1C(C)C
Outline: as §1

[15] = compound: Cn1cc(-c2ccc3c(c2)CCN3C(=O)Cc2cccc(C(F)(F)F)c2)c2c(N)ncnc21
Outline: as §1

[16] = compound: Cn1cc(CNCC2CCN(c3ncc(C(=O)NO)cn3)CC2)c2ccccc21 [quisinostat]
Outline: as §1

[17] = compound: Cn1cncc1[C@@](N)(c1ccc(Cl)cc1)c1ccc2c(c1)c(-c1cccc(Cl)c1)cc(=O)n2C [tipifarnib]
Outline: as §1

[18] = compound: NC(=O)Nc1cc(-c2cccc(F)c2)sc1C(=O)N[C@H]1CCCNC1
Outline: as §1

[19] = compound: NC(=O)c1cnc(N[C@@H]2CCCC[C@@H]2N)nc1Nc1cccc(-n2nccn2)c1
Outline: as §1

[20] = compound: NC1(c2ccc(-c3nc4ccn5c(=O)[nH]nc5c4cc3-c3ccccc3)cc2)CCC1
Outline: as §1

Target | log2 fold change [1] | log2 fold change [2] | log2 fold change [3] | log2 fold change [4] | log2 fold change [5] | log2 fold change [6] | log2 fold change [7] | log2 fold change [8] | log2 fold change [9] | log2 fold change [10] | log2 fold change [11] | log2 fold change [12] | log2 fold change [13] | log2 fold change [14] | log2 fold change [15] | log2 fold change [16] | log2 fold change [17] | log2 fold change [18] | log2 fold change [19] | log2 fold change [20]
NDUFS8 (UniProt O00217) | inactive: -0.046 | inactive: 0.011 | inactive: -0.043 | inactive: 0.085 | inactive: 0.01 | inactive: -0.164 | inactive: 0.034 | inactive: 0.007 | inactive: 0.026 | inactive: 0.006 | inactive: 0 | inactive: 0.027 | inactive: 0.022 | inactive: -0.005 | inactive: 0.068 | inactive: 0.018 | inactive: -0.003 | inactive: 0.023 | inactive: 0.026 | inactive: 0.072
NFATC4 isoform 2 (UniProt Q14934) | inactive: 0.039 | inactive: 0.003 | inactive: -0.132 | inactive: -0.187 | inactive: -0.006 | inactive: 0.04 | inactive: 0.084 | inactive: 0.026 | inactive: -0.305 | inactive: 0.192 | inactive: -0.046 | inactive: -0.018 | inactive: 0.055 | inactive: 0.04 | inactive: -0.041 | inactive: -0.07 | inactive: -0.066 | inactive: 0.01 | inactive: -0.017 | –
NEFH (UniProt P12036) | inactive: -0.019 | inactive: -0.048 | inactive: 0.008 | inactive: 0.015 | inactive: -0.041 | inactive: 0.009 | inactive: -0.017 | inactive: -0.008 | inactive: -0.042 | inactive: -0.003 | inactive: -0.026 | inactive: -0.052 | inactive: 0.047 | inactive: 0.025 | inactive: 0.012 | inactive: -0.04 | inactive: 0.004 | inactive: 0.041 | inactive: -0.012 | inactive: -0.053
NDUFS1 isoform 2 (UniProt P28331) | inactive: 0.023 | inactive: -0.014 | inactive: 0.034 | inactive: 0.009 | inactive: -0.01 | inactive: -0.006 | inactive: 0.03 | inactive: 0.024 | inactive: -0.013 | inactive: -0.006 | inactive: 0.005 | inactive: -0.001 | inactive: 0.013 | inactive: -0.021 | inactive: 0.009 | inactive: 0.112 | inactive: -0.002 | inactive: -0.018 | inactive: 0.003 | inactive: 0.006
NF2 (UniProt P35240) | inactive: -0.019 | inactive: -0.021 | inactive: -0.111 | inactive: -0.09 | inactive: -0.013 | inactive: 0.069 | inactive: -0.008 | inactive: 0 | inactive: -0.081 | inactive: 0.05 | inactive: -0.03 | inactive: 0.002 | inactive: -0.044 | inactive: 0.022 | inactive: 0.052 | inactive: -0.014 | inactive: -0.038 | inactive: 0.002 | inactive: 0.054 | inactive: 0.044
NHLRC2 (UniProt Q8NBF2) | inactive: -0.025 | inactive: -0.021 | inactive: -0.025 | inactive: -0.071 | inactive: -0.009 | inactive: 0.005 | inactive: -0.005 | inactive: 0.011 | inactive: -0.031 | inactive: 0.098 | inactive: -0.002 | inactive: 0.005 | inactive: -0.018 | inactive: 0 | inactive: -0.008 | inactive: -0.024 | inactive: -0.011 | inactive: 0.013 | inactive: 0.006 | inactive: -0.039
NEDD4 isoform 4 (UniProt P46934) | inactive: 0.003 | inactive: -0.037 | inactive: -0.032 | inactive: -0.031 | inactive: -0.005 | inactive: -0.057 | inactive: 0.026 | inactive: -0.037 | inactive: -0.033 | inactive: 0.009 | inactive: -0.007 | inactive: -0.039 | inactive: -0.011 | inactive: 0.009 | inactive: 0.026 | inactive: 0.05 | inactive: -0.001 | inactive: 0.014 | inactive: 0.003 | inactive: -0.004
NFKBIE (UniProt O00221) | inactive: 0.03 | inactive: 0.002 | inactive: -0.027 | inactive: 0.066 | inactive: 0.03 | inactive: -0.02 | inactive: 0.07 | inactive: 0.031 | inactive: 0.012 | inactive: 0.096 | inactive: -0.074 | inactive: 0.014 | inactive: -0.053 | active: 0.424 | inactive: 0.002 | inactive: -0.004 | inactive: -0.112 | inactive: 0.025 | inactive: 0.061 | inactive: -0.024
